Results are given in words; binding and its absence hold for the method and conditions named.

Amino acid sequences for entries named in this document (tags omitted). A change or cut given only in a name is not applied to a line headed by its entry.
UniProt Q9NR96: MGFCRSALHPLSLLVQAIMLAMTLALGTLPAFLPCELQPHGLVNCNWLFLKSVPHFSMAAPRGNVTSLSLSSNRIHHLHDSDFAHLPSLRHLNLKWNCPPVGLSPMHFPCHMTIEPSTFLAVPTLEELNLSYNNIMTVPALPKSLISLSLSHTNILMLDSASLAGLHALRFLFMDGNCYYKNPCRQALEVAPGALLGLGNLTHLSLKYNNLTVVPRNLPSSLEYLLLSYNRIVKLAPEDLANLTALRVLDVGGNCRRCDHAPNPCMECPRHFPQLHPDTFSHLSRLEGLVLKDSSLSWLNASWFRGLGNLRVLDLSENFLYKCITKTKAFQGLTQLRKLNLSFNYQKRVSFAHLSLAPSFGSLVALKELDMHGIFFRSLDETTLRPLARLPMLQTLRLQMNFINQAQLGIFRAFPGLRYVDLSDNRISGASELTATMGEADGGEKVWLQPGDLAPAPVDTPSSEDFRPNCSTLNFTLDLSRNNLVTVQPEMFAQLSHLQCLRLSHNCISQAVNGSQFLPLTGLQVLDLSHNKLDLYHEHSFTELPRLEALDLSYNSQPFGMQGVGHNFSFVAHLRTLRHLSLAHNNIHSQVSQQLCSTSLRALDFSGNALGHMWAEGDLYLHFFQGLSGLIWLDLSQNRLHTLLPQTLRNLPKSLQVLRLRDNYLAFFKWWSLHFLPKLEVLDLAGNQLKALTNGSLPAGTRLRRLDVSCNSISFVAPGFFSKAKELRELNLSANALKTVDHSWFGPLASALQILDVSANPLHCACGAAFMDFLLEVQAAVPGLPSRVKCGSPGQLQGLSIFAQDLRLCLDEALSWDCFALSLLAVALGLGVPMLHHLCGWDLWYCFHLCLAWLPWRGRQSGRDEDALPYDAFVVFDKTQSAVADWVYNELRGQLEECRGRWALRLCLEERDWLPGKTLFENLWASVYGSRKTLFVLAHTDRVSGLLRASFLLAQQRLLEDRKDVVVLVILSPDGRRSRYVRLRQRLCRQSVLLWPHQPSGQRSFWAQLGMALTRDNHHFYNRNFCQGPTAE

The target of the experiment is TLR9 (UniProt Q9NR96). Briefly: AlphaScreen or HTRF; AlphaScreen with streptavidin-conjugated donor beads and nickel chelate acceptor beads; 50 mM Tris-HCl pH 7.4, 100 mM NaCl, 1% BSA, 0.01% Tween 20; labeled TLR9 with varying concentrations of DWEYS, 30 min, room temperature; both purified. (In general: In Alpha technology, singlet oxygen from a donor bead excites a nearby acceptor bead.)

Regarding DWEYS (biotin (position not given)) [biotinylated DWEYS], the binding entry is on record as “no binding”.

Values taken from PMC6297782, “DNA-Mediated Interferon Signature Induction by SLE Serum Occurs in Monocytes Through Two Pathways: A Mechanism to Inhibit Both Pathways” (Frontiers in Immunology, 2018).
